This passage reports AC50 results from PubChem BioAssay AID445 (National Center for Advancing Translational Sciences (NCATS), 2006).

This is one part of the list. The main result of the screen is listed elsewhere. These columns were measured beside it and carry no call. Most of these compounds were active or inconclusive in the main read-out, so they are no random draw. Potencies come from curve fits of mixed quality, noted in brackets.

The experiment can be described thus: IkB Signaling. The settings on record: ABC-DLBCL IkBa-CBG/CBR dual luciferase ratio (green luciferase fused to IkBa over red control in OCI-Ly3 lymphoma cells), 4 h; measured here: control luc red channel unless noted. The gist of the method:
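In this assay, an IκBα–CBG68 fusion accumulates when IKK-driven degradation is blocked; native CBR normalizes for cell number. OCI-Ly3 cells were treated 4 h with compound and doxycycline, then green and red light read after Chroma-Glo addition.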
Turning to `COc1cccc(-c2nnc(Nc3nc4c(F)cccc4s3)o2)c1`, the AC50 (commonly the concentration giving half of the maximal activity seen) is 0.1 µM [falling, full curve].

As for `CCCCN(CCCC)CCNC(=O)c1cn(CC)c2ccc(S(=O)(=O)N3CCc4ccccc4C3)cc2c1=O`, the AC50 was 15.8 µM [falling, partial curve]. Consider `Cc1oc(-c2cccc(Cl)c2)nc1CN1CCC(C(=O)NCCCN2CCN(c3ccccc3F)CC2)CC1`, for which the AC50 was 20 µM [falling, partial curve]. With `COc1ccc(N(Cc2cccs2)C(=O)c2ccc(Br)o2)cc1` the figure was 5.01 µM [falling, partial curve]; with `Cc1noc(C)c1-c1ccc2ncnc(NC3CC3)c2c1`, 3.98 µM [rising, partial curve] [measured here: IkB-luc green channel]. With `Cc1ccn2c(Nc3ccc(F)cc3)c(-c3ccccn3)nc2c1` the figure was 25.1 µM [falling, partial curve]; with `COc1ccc(OC)c(Nc2ncnc3c2cnn3-c2cccc(Cl)c2)c1`, 1 µM [falling, partial curve]; with `CCCCC(=O)OC1=C(C(C)=O)N(Cc2ccccc2)S(=O)(=O)c2ccccc21`, 31.6 µM [falling, single point]. The figure for `CCC(Sc1ncnc2sc3c(c12)CCCC3)C(=O)OC(C)C` (configuration not stated) is 31.6 µM [falling, partial curve]; for `COc1ccccc1N1CCN(C(=O)CCc2nnc3n(C)c(=O)c4sccc4n23)CC1` it is 3.98 µM [falling, partial curve]; for `Cc1cccc(C(=O)Nc2ccc(C(=O)OCc3cc(=O)n4nc(C5CC5)sc4n3)cc2)c1` it is 25.1 µM [rising, single point]. Regarding `COc1ccc(NC(=O)C2CCCN2S(=O)(=O)c2ccc3c(c2)CCC(=O)N3)cc1Cl` (configuration not stated), the AC50 is 3.98 µM [falling, partial curve]. For `Cc1nnc(NC(=O)c2ccc3ccccc3c2)o1`, the AC50 was 39.8 µM [rising, single point] [measured here: IkB-luc green channel]. In the case of `O=C(CCc1ccccc1)Nc1cc(Cl)ccc1O`, the half-maximal activity concentration (AC50) is 10 µM [falling, partial curve]. Take `Cc1ccc(NC(=O)C2CCCN2S(=O)(=O)c2ccc3nc(-c4ccccc4)[nH]c3c2)cc1F` (configuration not stated): the AC50 is 25.1 µM [falling, partial curve]. As for `CCOc1ccc(CCNC(=O)c2cn(C)c3ccc(S(=O)(=O)N4CCOCC4)cc3c2=O)cc1OCC`, the AC50 was 0.631 µM [rising, full curve]. The figure for `Cn1c(=O)c(C#N)c(-c2ccccc2)n2cnnc12` is 7.94 µM [falling, partial curve]; for `Cc1cccc(Cn2c(C)c(C)c3cc(C(=O)NCc4ccco4)ccc32)c1` it is 7.94 µM [rising, partial curve]. With `COc1ccc2[nH]c(=O)c(CN(C(=O)c3cccc(Cl)c3)c3ccccc3OC)cc2c1` the figure was 31.6 µM [falling, single point]; with `COc1ccc(S(=O)(=O)NCCc2csc3nc(-c4ccc(Cl)cc4)nn23)cc1C`, 3.16 µM [falling, partial curve]; with `CS(=O)(=O)N1CCc2cc(S(=O)(=O)NCc3ccccc3Cl)ccc21`, 0.0251 µM [falling, full curve, poor fit]. In the case of `COc1ccc(-c2nc(Cn3c(SCc4cccc(Cl)c4)nc4ccncc43)c(C)o2)cc1`, the AC50 is 10 µM [falling, partial curve].

For `Cc1ccc(Sc2c(C)nn(C(=O)COc3ccccc3)c2C)cc1`, the AC50 is 15.8 µM [falling, partial curve]. Turning to `Cc1cccc(-n2c(-c3ccco3)nc3c(cnn3-c3ccccc3C)c2=O)c1`, the AC50 was 39.8 µM [falling, single point]. Consider `Cc1ccc(C(c2sc3nc(-c4ccco4)nn3c2O)N2CCOCC2)cc1` (configuration not stated), for which the AC50 was 31.6 µM [rising, single point].

As for `COc1ccccc1NC(=O)CSc1nc2ccccc2c(=O)n1CCC(=O)NC1CCCCC1`, the AC50 was 39.8 µM [falling, single point]. Turning to `COc1cc2c(C#N)c(N3CCN(c4ccccc4OC)CC3)nc(N)c2c(N)n1`, the AC50 is 3.16 µM [falling, full curve]. On to `Cc1nn(C(=O)c2ccccc2)c(C)c1Sc1ccc(Cl)cc1`, for which the AC50 is 25.1 µM [falling, single point]. As for `Cc1ccc(Cn2nc(C)c(NC(=O)c3cc(-c4ccc(F)cc4)on3)c2C)cc1`, the AC50 was 7.94 µM [falling, partial curve].

For the molecule `CCOc1ccc(NC(=O)Cn2c(=O)oc3cc(S(=O)(=O)NC4CCCC4)ccc32)cc1`, the AC50 is 15.8 µM [falling, partial curve]. With `O=C1c2ccccc2C(Nc2ccc3c(c2)OCCO3)N1Cc1ccccc1` (configuration not stated) the figure was 10 µM [falling, partial curve]; with `COc1ccc2cc(CN(CCc3ccccc3)Cc3nnnn3Cc3ccco3)c(=O)[nH]c2c1`, 39.8 µM [falling, single point]; with `CCc1ccc(NC(=O)C2CCCN(S(=O)(=O)c3ccc4c(c3)CCCN4C(C)=O)C2)cc1` (configuration not stated), 25.1 µM [falling, single point]. With `Cc1ccc(-n2ncc(C(=O)N3CCCCC3)c2C2CCN(C(=O)OC(C)(C)C)CC2)cc1C` the figure was 12.6 µM [falling, partial curve]; with `Cc1cccc(OCC(=O)NCC2(N3CCN(C)CC3)CCCCC2)c1C`, 1.58 µM [falling, partial curve]. `O=c1oc(-c2ccco2)nc2ccccc12`: the AC50 is 25.1 µM [rising, partial curve] [measured here: IkB-luc green channel]. Regarding `Cc1ccc(NC(=O)c2ccc3snnc3c2)cc1Cl`, the AC50 is 0.0501 µM [rising, full curve]. Turning to `CCc1ccc(S(=O)(=O)c2nnn(-c3ccc(F)cc3)c2N)cc1`, the AC50 is 7.94 µM [falling, single point]. Regarding `Cc1cccc(NC(=O)Cn2nnc(-c3cccs3)n2)c1C`, the AC50 was 12.6 µM [falling, partial curve]. As for `CC(=O)N1CCc2c(sc3c2c(=O)n(-c2ccccc2)c(=O)n3CC(=O)c2ccc(Cl)cc2)C1`, the AC50 is 39.8 µM [falling, single point]. The figure for `COCCNC(=O)CCn1c(=O)c2cc(OC)c(OC)cc2n(CC(=O)Nc2ccc(F)c(Cl)c2)c1=O` is 5.01 µM [falling, partial curve]; for `O=C(Nc1nnc(C2CC2)s1)C1Cc2ccccc2CN1S(=O)(=O)c1cccs1` (configuration not stated) it is 31.6 µM [falling, partial curve]. For the molecule `Cc1cc(C)c(NC(=O)Cn2c(=O)n(-c3cccc(C(F)(F)F)c3)c(=O)c3c(C)c(C)sc32)c(C)c1`, the AC50 is 25.1 µM [falling, single point]. Regarding `O=C(O)c1ccc(Nc2nc3ccccc3c3nncn23)cc1`, the AC50 was 0.501 µM [falling, full curve]. As for `COc1ccccc1NC(=O)C(Cc1ccccc1)NS(=O)(=O)c1ccc2c(c1)CCN2C(C)=O` (configuration not stated), the AC50 was 12.6 µM [falling, partial curve]. Turning to `CCc1ccccc1Nc1nn2c(=O)c3ccc(C(=O)NCc4ccc(C)cc4)cc3nc2s1`, the AC50 is 1.58 µM [falling, full curve, poor fit].

With `CCCCc1nn2c(=O)cc(COC(=O)c3cccc(NC(=O)COc4ccccc4)c3)nc2s1`, the AC50 is 10 µM [falling, partial curve].

Take `CCN(CCCNC(=O)CSc1cc(=O)n(C)c2ccccc12)c1ccccc1`: the AC50 was 7.94 µM [falling, partial curve]. Consider `O=C(Nc1ccc(Cl)cc1Cl)c1cc(S(=O)(=O)N2CCC3(CC2)OCCO3)ccc1F`, for which the AC50 is 15.8 µM [falling, partial curve]. `COc1cccc(-c2nc(NCCc3c[nH]c4ccc(OC)cc34)c3ccccc3n2)c1`: the AC50 was 3.98 µM [falling, partial curve] [measured here: IkB-luc green channel]. Turning to `CC(=O)Oc1ccc(NC(=O)C2CCCCC2)c(C(=O)O)c1`, the AC50 was 0.0794 µM [falling, full curve]. As to `O=C1CS(=O)(=O)C2(C(=O)Nc3ccccc32)N1c1cccc(Cl)c1` (configuration not stated), the AC50 is 25.1 µM [falling, partial curve]. With `CC(C)(C)C(=O)Nc1cc(-c2cccc(Br)c2)nn1-c1ccccc1` the figure was 0.0251 µM [falling, full curve, poor fit]. For `CC(=O)Oc1ccccc1C(=O)Nc1ncc([N+](=O)[O-])s1`, the AC50 was 0.0398 µM [falling, full curve]. With `CCOC(=O)c1ccc(NC(=O)CSc2nc3ncc(Br)c(C)c3[nH]2)cc1` the figure was 1.58 µM [falling, full curve]; with `CCOC(=O)CC(=O)Nc1ccc(Br)cc1C(=O)O`, 12.6 µM [falling, partial curve].

For the molecule `COc1ccc(-c2cc3nc(N)cc(=O)n3[nH]2)cc1`, the concentration at half-maximal activity (AC50) is 39.8 µM [rising, partial curve]. Turning to `COc1ccc(OC)c(-c2oc3ccccc3c(=O)c2O)c1`, the AC50 was 20 µM [falling, single point]. `CC(C)c1ccc2oc(-c3ccc(Cl)c(NC(=O)c4cccs4)c3)nc2c1`: the AC50 is 0.2 µM [falling, full curve].

As for `CCOC(=O)N1CCC(Nc2c(N3CCN(c4cccc(C(F)(F)F)c4)CC3)c(=O)c2=O)CC1`, the AC50 was 15.8 µM [falling, partial curve]. As to `Cc1cccc(C)c1OCc1cc(=O)n2c(-c3ccccc3)csc2n1`, the AC50 is 39.8 µM [falling, single point].

`CC(=O)C1=C(C)NC(SCC(=O)c2ccc(Cl)cc2)=C(C#N)C1c1ccco1` (configuration not stated): the AC50 was 15.8 µM [falling, partial curve].
